Experimental data: PubChem BioAssay AID504764 (Drosophila RNAi Screening Center, 2011)
The deposit covers about 22,000 reagents; below is a random part of those that have a named target and a result. Of all reagents, 403 (1.9%) are marked active. 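Unnormalised raw counts per well; ratio z-scores behind the hit calls and whether each hit raises or lowers signal are not deposited.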 Names joined by + are all predicted targets of the reagent. Not stated in the record: the amount of reagent.

Purpose: 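Genome-wide screen for regulators of Notch-driven gene expression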 (primary screen)
Cell system: Drosophila Kc167 cells
Reagents: long dsRNA against Drosophila genes
Timing: about 5 days (4 days dsRNA, then 24 h after transfection)
Conditions: transfection of constitutively active membrane-tethered Notch lacking the extracellular domain, read 24 h later
Measurement: 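Firefly luciferase from an E(spl)m3 reporter with active Notch, plus control-promoter and uninduced reporter wells for normalisation; unnormalised counts, duplicate wells a and b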
Direction: induced reporter light, run 1, well a and induced reporter light, run 1, well b: higher = more light from the Notch target reporter with active Notch; control promoter light, run 1, well a and control promoter light, run 1, well b: higher = more light from the viral control promoter (cell number, transfection, viability); uninduced reporter light, run 1, well a: higher = more light from the Notch target reporter without active Notch
Active means: 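Wells with low control signal or poorly matching duplicates excluded; duplicates averaged; per source plate, z beyond ±2 for induced/control log2 ratio or beyond ±1.8 for induced/uninduced marks a hit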
Calls: active = modifier hit (raised or lowered Notch signal); inactive = not a hit

The opening 2 entries as a preview:
| target | amplicon | induced reporter light, run 1, well a | induced reporter light, run 1, well b | control promoter light, run 1, well a | control promoter light, run 1, well b | uninduced reporter light, run 1, well a | Outcome |
| --- | --- | --- | --- | --- | --- | --- | --- |
| CG7423 | DRSC20044 | 85270 | 96430 | 79730 | 1.32e5 | 8270 | inactive |
| Sar1 | DRSC17049 | 2.16e5 | 1.58e5 | 2.01e5 | 1.88e5 | 16635 | inactive |

The listing, repeating the preview:
| target | amplicon | induced reporter light, run 1, well a | induced reporter light, run 1, well b | control promoter light, run 1, well a | control promoter light, run 1, well b | uninduced reporter light, run 1, well a | Outcome |
| --- | --- | --- | --- | --- | --- | --- | --- |
| CG7423 | DRSC20044 | 85270 | 96430 | 79730 | 1.32e5 | 8270 | inactive |
| Sar1 | DRSC17049 | 2.16e5 | 1.58e5 | 2.01e5 | 1.88e5 | 16635 | inactive |
| CG7137 | DRSC07017 | 80980 | 90785 | 1.46e5 | 1.65e5 | 6320 | inactive |
| CG14572 | DRSC11733 | 1.45e5 | 1.33e5 | 1.37e5 | 1.03e5 | 8645 | inactive |
| CG13954 | DRSC06442 | 1.96e5 | 2.00e5 | 2.14e5 | 2.19e5 | 14965 | inactive |
| CG6800 | DRSC16119 | 1.80e5 | 1.68e5 | 1.94e5 | 2.17e5 | 11885 | inactive |
| slpr | DRSC18225 | 1.78e5 | 1.48e5 | 1.90e5 | 2.01e5 | 14020 | inactive |
| CG33521 | DRSC17179 | 1.03e5 | 1.21e5 | 1.40e5 | 1.61e5 | 9885 | inactive |
| CG33521 | DRSC17211 | 87335 | 1.19e5 | 2.18e5 | 1.89e5 | 9532 | inactive |
| sip2 | DRSC03154 | 41920 | 40150 | 49065 | 37080 | 3288 | inactive |
| CG42518 + MED9 | DRSC06917 | 45965 | 49150 | 66655 | 62425 | 3495 | inactive |
| CG3847 | DRSC17444 | 74505 | 78725 | 83160 | 73125 | 5960 | inactive |
| CG3847 | DRSC18327 | 1.94e5 | 1.89e5 | 1.88e5 | 1.89e5 | 15725 | inactive |
| CkIalpha | DRSC20231 | 54435 | 45325 | 58985 | 64600 | 3510 | inactive |
| CkIalpha | DRSC22609 | – | – | – | – | – | active |
| Caf1-105 | DRSC06209 | 1.27e5 | 1.01e5 | 1.45e5 | 1.34e5 | 11885 | inactive |
| Hk | DRSC17638 | 56345 | 50165 | 24542 | 20660 | 4730 | inactive |
| Hk | DRSC18674 | 33195 | 24500 | 9505 | 9275 | 8500 | inactive |
| wech | DRSC06606 | 1.45e5 | 1.46e5 | 1.51e5 | 1.32e5 | 11330 | inactive |
| bin3 | DRSC04919 | 1.75e5 | 1.18e5 | 1.49e5 | 1.53e5 | 12785 | active |
